# Measurements reported in the odorant receptor screen of Mainland et al. (2015).
# Where “and” joins values, the source holds several entries; their conditions need not be identical. Equal entries are not always repeated. This is one part of the list. Single wells; the ratio to wells without odorant was worked out here, and repeats agree poorly.
# Key:
# Experiment in all cases: odorant receptor activation (CRE luciferase / Renilla) (fold of no-odor wells); higher = more activation
# Details in all cases: 100 µM
# OR4K13 clone 1266 = tested on: OR4K13 clone 1266
# OR4K14 clone 1276 = tested on: OR4K14 clone 1276
# [1] = tested on: OR4K15 N65S/E88V/S93A/A231E/L280P/I286M clone 1566
# OR4K17 clone 1319 = tested on: OR4K17 clone 1319
# OR4K17 clone 1420 = tested on: OR4K17 clone 1420
# OR4K2 clone 1258 = tested on: OR4K2 clone 1258
# OR4K3 clone 1259 = tested on: OR4K3 clone 1259
# OR4K5 clone 1261 = tested on: OR4K5 clone 1261
# OR4L1 R52S clone 1265 = tested on: OR4L1 R52S clone 1265
# OR4M1 clone 1559 = tested on: OR4M1 clone 1559
Structure (SMILES),odorant receptor activation (OR4K13 clone 1266),odorant receptor activation (OR4K14 clone 1276),odorant receptor activation [1],odorant receptor activation (OR4K17 clone 1319),odorant receptor activation (OR4K17 clone 1420),odorant receptor activation (OR4K2 clone 1258),odorant receptor activation (OR4K3 clone 1259),odorant receptor activation (OR4K5 clone 1261),odorant receptor activation (OR4L1 R52S clone 1265),odorant receptor activation (OR4M1 clone 1559)
CCC1(O)C2(C)CCC(C2)C1(C)C (configuration not stated) [2-ethylfenchol],0.731,0.847,1.11,1.15,0.623,1.28,0.794,1.38,1.19,1.16
C=CCc1ccc(OC)c(OC)c1 [eugenol methyl ether],1.63,1.73,0.648,1.43,1.39,1.99,1.62,1.35,1.52,0.726
"CC1CCC(C(C)C)C(O)C1 (single isomer, unassigned; (-)) [(-)-menthol]",0.576,0.6,1.12,0.854,1.02,0.914,0.438,0.743,0.722,1.35
CCCCCCCOC(C)=O [heptyl acetate],0.918 and 0.957,1.12 and 0.836,0.752,0.519 and 0.96,0.935,0.944 and 1.24,1.4 and 1.22,1.29 and 1.43,0.964 and 1.02,0.683
CC(C)=CCCC(C)=CC=O [citral],1.06,1.07,1.23,0.945,0.24,1.27,1.29,1.34,0.893,1.08
COc1cc(C)ccc1O [2-methoxy-4-methylphenol],0.971,0.825,0.95,0.984,0.933,1.11,0.765,1.18,0.906,1.05
C=CCc1ccc(OC(C)=O)c(OC)c1 [eugenol acetate],2.02,1.74,2.41,1.73,1.54,1.97,1.54,1.5,1.32,2.13
CC(=O)C(C)=O [diacetyl],1.13,1.24,1.35,1.29,1.12,1.25,1.08,0.983,0.918,0.773
CC(C)C=O [isobutyraldehyde],1.17 and 1.05,1.6 and 0.995,0.686,0.89 and 0.726,0.916,0.856 and 0.971,1.17 and 0.818,1.06,0.912 and 1.04,1.06
c1cnccn1 [pyrazine],0.587,0.717,1.17,0.802,1.17,0.812,0.797,0.563,0.784,0.759
CCCCCCOC(=O)CCC [hexyl butyrate],1.17 and 0.976,1.25 and 1.01,0.713,1.08 and 0.876,0.856,0.74 and 1.31,1.05 and 0.715,0.922 and 0.957,0.845 and 1.04,0.961
c1ccc(Oc2ccccc2)cc1 [diphenyl ether],1.22,1.06,0.807,0.93,0.961,0.981,0.982,0.924,1.02,0.823
CC=Cc1ccc(O)c(OC)c1 [isoeugenol],1.42 and 0.875,1.54 and 1.02,4.7,0.865 and 1.36,1.53,1.57 and 0.833,1.72 and 1.55,1.12 and 1.93,1.05 and 1.08,0.788
COC(=O)c1ccccc1O [methyl salicylate],0.88,1.05,0.831,0.918,1,0.775,0.741,0.752,0.956,1.03
CC12CCC(CC1)C(C)(C)O2 [cineole],0.881,0.993,0.936,1.03,0.197,1.09,1.1,1.08,0.946,1.1
O=C1CCCCCCCCCCCCCCO1 [pentadecalactone],0.666,0.668,0.917,0.853,1.18,0.657,0.811,0.652,0.665,0.766
CCCCCCCCOC(C)=O [octyl acetate],1.21,1.35,0.819,1.45,0.925,0.945,0.931,1.07,1.32,0.878
CCCCCC(=O)O [caproic acid],0.857,0.919,0.841,0.819,0.216,0.84,0.756,1.03,0.962,1.03
CCCCO [1-butanol],1.05,0.767,1.13,1.11,1.03,1.19,0.904,1.47,1.31,1.2

# Some entries already given, limited to odorant receptor activation (OR4K5 clone 1261):
Structure (SMILES)	odorant receptor activation (OR4K5 clone 1261)
CC12CCC(CC1)C(C)(C)O2 [cineole]	1.08
O=C1CCCCCCCCCCCCCCO1 [pentadecalactone]	0.652

# Later entries:

Structure (SMILES),odorant receptor activation (OR4K13 clone 1266),odorant receptor activation (OR4K14 clone 1276),odorant receptor activation [1],odorant receptor activation (OR4K17 clone 1319),odorant receptor activation (OR4K17 clone 1420),odorant receptor activation (OR4K2 clone 1258),odorant receptor activation (OR4K3 clone 1259),odorant receptor activation (OR4K5 clone 1261),odorant receptor activation (OR4L1 R52S clone 1265),odorant receptor activation (OR4M1 clone 1559)
CCCCCCCCCC=O [decyl aldehyde],1.53,1.3,1.48,1.45,1.4,1.22,1.3,1.1,1.3,0.864
C=C(C)C1CC=C(C)C(=O)C1 (configuration not stated) [r-carvone],0.686,0.668,0.861,0.772,1.24,0.868,0.799,0.546,0.984,0.776
CCCCCCCCC=O [nonyl aldehyde],1.32,1.24,0.84,0.798,0.982,1.14,1.01,1.15,1.18,0.862
COc1ccccc1O [guaiacol],1.1 and 0.909,1.21 and 0.9,0.834,0.722 and 0.845,0.867,0.86 and 0.921,1.45 and 0.854,0.818 and 0.923,0.884 and 1,0.892
CC(=O)OCC=C(C)CCC=C(C)C [geranyl acetate],1 and 0.855,1.13 and 0.96,1.29,0.646 and 1.16,1.09,1.04 and 1.08,1.55 and 1.21,0.936 and 1.33,0.946 and 1.3,1.3
CC(C)C(=O)O [isobutyric acid],1.03 and 1.08,1.55 and 0.978,0.814,0.997 and 0.828,0.892,0.932 and 1.34,1.07 and 0.808,1.19 and 0.887,1.05 and 1.07,0.993
CC1=CCC(C(C)(C)O)CC1 (configuration not stated) [terpineol],0.932,0.917,0.997,0.995,0.943,0.821,1.1,0.776,1.01,0.798
CCCCCCCCCCC=O [undecanal],0.882,1.11,1.21,0.956,1.02,0.939,1.17,0.85,0.957,0.847
O=CCc1ccccc1 [phenyl acetaldehyde],1.14,1.39,3.59,1.13,1.45,1.35,1.32,1.11,1.42,1.45
CC(C)(C)c1ccc(CCC=O)cc1 [bourgeonal],0.718,0.828,–,0.602,0.167,0.921,0.782,0.856,0.617,–
"CC1CCC(C(C)C)C(O)C1 (single isomer, unassigned; (+)) [(+)-menthol]",0.871,0.662,1.18,1.2,1.06,1.28,0.676,0.893,1.2,1.21
CC12C=CCC1C1CCC3=CC(=O)CCC3(C)C1CC2 (configuration not stated) [androstadienone],1.15 and 0.961,1.48 and 1.02,–,0.768 and 0.791,0.891,0.947 and 1.13,1.39 and 1.13,1.09 and 1.15,0.943 and 1.05,–
CC(C)(O)CCCC1=CCC(C=O)CC1 (configuration not stated) [lyral],–,–,1.13,–,–,–,–,–,–,1.15
COc1cc(C=O)ccc1O [vanillin],0.83,1.03,0.713,0.974,1,0.988,0.978,0.785,1.07,1.12
CCCCCC(C)=O [2-heptanone],3.8,0.901,–,2.57,0.907,2.74,1.25,2.05,5.41,–
O=C1CCCCC1 [Cyclohexanone],0.588,0.408,–,0.954,0.817,0.278,0.343,0.418,0.862,–
C=C(C)C1CC=CCC1 (configuration not stated) [r-limonene],0.711 and 0.635,0.806 and 0.387,0.994,0.763 and 0.34,1.23 and 0.941,–,0.822 and 0.378,0.584 and 0.343,1.02 and 1.25,1.09
COC(=O)c1ccccc1 [methyl benzoate],0.785,0.421,–,0.867,0.793,0.445,0.631,1.97,1.55,–
CCCCCCC=O [heptaldehyde],0.557 and 0.831 and 1,–,0.928,1.25 and 0.722 and 0.911,0.883 and 0.833,0.413 and 1.19 and 0.706,0.531 and 1.13 and 0.737,0.838 and 0.835 and 1.03,1.2 and 0.817 and 0.92,0.872

Structure (SMILES),odorant receptor activation (OR4K13 clone 1266),odorant receptor activation (OR4K14 clone 1276),odorant receptor activation [1],odorant receptor activation (OR4K17 clone 1319),odorant receptor activation (OR4K17 clone 1420),odorant receptor activation (OR4K2 clone 1258),odorant receptor activation (OR4K3 clone 1259),odorant receptor activation (OR4K5 clone 1261),odorant receptor activation (OR4L1 R52S clone 1265),odorant receptor activation (OR4M1 clone 1559)
CC(C)CC(=O)O [isovaleric acid],0.725,0.783,0.979,0.835,0.84,0.733,0.792,0.987,0.815,0.855
CC(=O)OC(C)(C)C1CC=C(C)CC1 (configuration not stated) [terpinyl acetate],0.862,0.942,1.21,0.83,0.889,0.784,0.844,0.674,1.13,0.923
CC12C=CCC1C1CCC3CC(=O)CCC3(C)C1CC2 (configuration not stated) [androstenone],1.02,1.31,–,0.959,0.788,1.59,1.01,1.37,1.81,–
C=CCc1ccc(O)c(OC)c1 [eugenol],1.85 and 1.42,1.52 and 1.63,1.13,1.48 and 1.45,1.39 and 1.23,1.35 and 1.83,–,3.57 and 1.19,2.24 and 1.36,1.44
CCCCCCCC=CC=O [2-decenal],1.69,1.11,0.895,1.03,1.13,1.82,0.953,2.16,1.75,1.07
CC(C)CCC(=O)O [4-methylvaleric acid],1.12,0.84,0.864,1.2,0.826,1.17,0.971,1.72,1.36,1.17
CC(=O)OC1CC2CCC1(C)C2(C)C (configuration not stated) [isobornyl acetate],1.22 and 1.07,1.35 and 0.855,0.628,0.95 and 0.734,0.958,0.827 and 1.21,1.2 and 0.914,0.889 and 1.03,0.955 and 1.09,1.05
CC1COCc2cc3c(cc21)C(C)(C)C(C)C3(C)C (configuration not stated) [galaxolide],1.09 and 1.94,1.56 and 1.14,–,–,3.34,3.86 and 1.5,3.14 and 3.91,–,1.22 and 1.24,0.83 and 1.25
C=CCSCC=C [diallyl sulfide],1.17,0.925,1.55,1.28,1.25,1.04,1.21,0.886,0.847,0.837
C=CC(C)(O)CCC=C(C)C (configuration not stated) [linalool],0.936,1.01,0.856,0.908,1.15,0.792,0.857,0.915,1.08,0.881
CCCC(=O)O [butyric acid],0.941,0.884,0.786,0.792,0.213,1.02,1.09,1.31,0.843,1.51
CC1=NC(C)SC1C (configuration not stated),1.27,1.37,–,1.95,1.02,0.591,1.44,2.22,2.19,–
CCCCCCCC=O [octyl aldehyde],1.03,1.11,0.932,0.983,0.768,0.965,1.07,1.1,1.2,0.85
CC/C=C\CCO [cis-3-hexen-1-ol],0.868,0.765,1.13,0.976,0.232,0.884,1.12,1.14,0.83,1.15
O=C1CCCCCCCCCCCC(=O)OCCO1 [ethylene brassylate],1.71,1.58,1.22,1.42,1.62,1.78,1.38,1.47,1.44,1.26
CC12CCC(C1)C(C)(C)C2=O (configuration not stated) [fenchone],1.05,1.18,0.655,1.06,0.914,1.1,0.972,0.922,0.867,0.8
CC(=O)c1ccccc1 [acetophenone],1.03,0.448,–,2.76,0.921,1.01,2.33,1.3,2.04,–
CCCCCOC(C)=O [n-amyl acetate],0.685,0.572,1.06,0.676,0.769,0.34,0.452,0.335,1.16,0.791
C=C(C)C1CCC2=CC(=O)CC(C)C2(C)C1 (configuration not stated) [amyl laurate],–,–,1.63,–,–,–,–,–,–,0.738
